The experiment is described as follows: qHTS Assay for Lipid Storage Modulators in Drosophila S3 Cells.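 On cell number change: cells counted by Cell Tracker Red CMTPX staining in the red channel.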 The conditions noted are these: BODIPY lipid droplet fluorescence, 18-24 h; for cell number change: measured here: cell count max response, cells fed with added oleic acid. The essentials: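 Drosophila S3 cells loaded with oleic acid (400 uM, as added) and compounds at several concentrations; lipid droplets imaged by 488-nm laser-scanning cytometry, 500–530 nm intensity and object ratio to cell channel. Percent activity normalized to 20 uM Triacsin C.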

Setting [1] is: measured here: cell number channel AC50, cells fed with added oleic acid.
Setting [2] is: measured here: lipid fluorescence (Fed channel) AC50, cells fed with added oleic acid.

The other results are listed elsewhere or left out. Shown are side measurements of this screen, not its main read-out; they come without a call. Compounds called inactive in the main read-out are mostly missing here. Words in brackets tell the shape of the fitted curve; partial curves, single points and poor fits give uncertain potencies.

Consider `O=C(COC(=O)CCC1CCCC1)Nc1ccc(Cl)cn1`, for which the cell number change is 41.7%. With `COC(=O)Cc1cc(=O)oc2cc(O)ccc12`, the cell number change is -31.1%. Moreover, the AC50 under setting [1] is 5.17 µM [falling, full curve, poor fit]. Besides, the AC50 under setting [2] was 5.8 µM [falling, full curve].

Take `CCC(=O)c1ccc(N2CCN(C(=O)COc3ccccc3F)CC2)c(F)c1`: the cell number change is -28.2%. In addition, under setting [2], the half-maximal activity concentration (AC50) was 16.4 µM [falling, single point]. As to `O=C(NCc1cccc(Cl)c1)C1CCC(=O)N(CC2CCCCC2)C1` (configuration not stated), the cell number change worked out at 28.6%. On to `O=C(OCCOCCN=C1NS(=O)(=O)c2ccccc21)c1ccccc1`, for which the cell number change is 21%.

As to `CCNC(=S)Nc1nc2c(cc1C(=O)OCC)CCCC2`, the cell number change was 24.3%. Also, the AC50 under setting [1] is 0.326 µM [rising, partial curve, poor fit]. The AC50 under setting [2] is 4.61 µM [rising, full curve, poor fit].

In the case of `Cc1cc(C)c(N(C(=O)c2csnn2)C(C(=O)NC(C)(C)C)c2ccncc2)c(C)c1` (configuration not stated), the cell number change amounted to 14.9%. The AC50 under setting [2] is 0.082 µM [falling, full curve, poor fit]. As for `C/C=N/NC(=O)CCNC(=O)c1ccccc1`, the AC50 under setting [2] is 1.16 µM [rising, partial curve, poor fit].

As to `Cc1ccc(C)c(CSc2nnc([C@@H]3CCCN3)o2)c1`, the cell number change worked out at 46.2%. For the same compound, under setting [1], the AC50 is 29.1 µM [rising, single point].

As to `COc1ccc(OC)c(S(=O)(=O)Nc2c(F)cccc2F)c1`, the cell number change is -5.21%. Under setting [2], the AC50 was 0.058 µM [rising, full curve, poor fit]. Consider `CC1(S(=O)(=O)O)CC(=O)c2ccccc2C1=O` (configuration not stated), for which the cell number change was -25%.

On to `CC(=O)N1CCN(C(=O)CNC(=O)c2ccc(Br)o2)CC1`, for which the cell number change stood at 31.1%. Moreover, the AC50 under setting [1] is 8.2 µM [rising, partial curve, poor fit]. Take `Cc1cc(C)c2c(-n3cccc3)n[nH]c2n1`: the cell number change was 67.9%. Turning to `O=C(Nc1cccc(Cl)c1)c1ccc(NCC2CCCO2)c([N+](=O)[O-])c1` (configuration not stated), the cell number change was 13.5%. For `Cc1ccc(C(=O)C(c2ccccc2)N2Cc3ccccc3C2=N)cc1` (configuration not stated), the cell number change was found to be 4.31%. Further, the AC50 under setting [1] was 2.91 µM [rising, partial curve, poor fit]. Turning to `Cc1ccc(S(=O)(=O)Nc2ccc(C(=O)OCC(=O)N(CCC#N)c3ccccc3)cc2)cc1C`, the cell number change amounted to 6.38%. For the same compound, under setting [1], the AC50 was 0.0259 µM [falling, full curve, poor fit]. Further, the AC50 under setting [2] was 0.517 µM [falling, full curve, poor fit]. As to `Cn1nnnc1Sc1ncnc2scc(-c3cccc(S(C)(=O)=O)c3)c12`, the cell number change is -16.6%. Further, under setting [2], the AC50 was 0.0058 µM [rising, full curve, poor fit]. For the compound `Cc1ccc(S(=O)(=O)CC(=O)Nc2nc3ccc(S(N)(=O)=O)cc3s2)cc1`, the cell number change stood at 11%. Moreover, the AC50 under setting [2] is 0.58 µM [rising, single point]. Take `Cc1ccc(-n2nnnc2SCC(=O)c2cc(C)n(CC3CCCO3)c2C)cc1` (configuration not stated): the cell number change is -6.52%. Further, the AC50 under setting [2] was 4.11 µM [rising, single point].

In the case of `O=C(Nc1ccccc1)c1ccc2c(c1)OCO2`, the cell number change stood at 71.8%. Further, the AC50 under setting [1] is 29.1 µM [rising, single point]. On to `COc1cccc(CNC(=O)CCNC(=O)N2CCn3c2nc2ccccc23)c1`, for which the cell number change worked out at 8.47%. `COc1ccc(CNc2n[nH]c(NCc3ccc(OC)c(OC)c3)n2)cc1OC`: the cell number change came out at 17%. In addition, under setting [2], the AC50 was 18.4 µM [rising, single point]. For the compound `COc1cc(-c2nn3c(-c4ccccn4)nnc3s2)cc(OC)c1OC`, the cell number change is 2.28%. Besides, the AC50 under setting [2] was 0.82 µM [rising, full curve]. For the compound `CC(=O)c1ccc(OCCn2c(SCC(=O)O)nc3ccccc32)cc1`, the cell number change is -6.04%. Regarding `COc1ccc(S(=O)(=O)N(CC(=O)O)c2ccccn2)cc1`, the cell number change amounted to 33.1%. Also, the AC50 under setting [1] is 14.6 µM [rising, partial curve, poor fit]. Consider `COc1ccc(NS(=O)(=O)c2ccc(Br)s2)cc1OC`, for which the cell number change was -37.1%. The AC50 under setting [1] is 29.1 µM [falling, single point]. Besides, the AC50 under setting [2] was 1.16 µM [rising, single point]. Consider `COc1ccc(C(=O)N/N=C/c2c(CO)cnc(C)c2O)cc1`, for which the cell number change turned out to be 27.3%. The AC50 under setting [2] was 29.1 µM [rising, single point]. For `O=C(Nc1cccc(Cl)c1)OC1CCCCc2cccnc21` (configuration not stated), the cell number change was 17.7%. The AC50 under setting [2] was 14.6 µM [rising, partial curve]. In the case of `O=C(COc1ccccc1)Nc1ccc(S(=O)(=O)Nc2ccccn2)cc1`, the cell number change stood at 9.13%. The AC50 under setting [2] was 6.51 µM [rising, single point].

In the case of `O=C(c1cc([N+](=O)[O-])ccc1Cl)N1CCN(Cc2ccccc2)CC1`, the cell number change is -30.7%. Also, the AC50 under setting [1] is 29.1 µM [falling, partial curve, poor fit]. The AC50 under setting [2] was 0.58 µM [rising, single point]. Take `CCCC(=O)OCCNc1cc(SCc2ccco2)c2nonc2c1[N+](=O)[O-]`: the cell number change is -11.5%. The AC50 under setting [2] was 29.1 µM [falling, single point]. `COC(=O)c1c(O)cc(=O)n2c1CCCCC2`: the cell number change was -44.5%. `Cc1nc(C)c(/C(O)=C\c2nc3ccc([N+](=O)[O-])cc3oc2=O)o1`: the cell number change is 3.79%. Besides, the AC50 under setting [2] is 23.1 µM [falling, single point]. As to `CCCCNC(=O)c1ccccc1NC(=O)CN(c1ccccc1)S(=O)(=O)N(C)C`, the cell number change was found to be 17.8%. For the same compound, the AC50 under setting [2] is 5.8 µM [rising, full curve]. For the compound `COc1ccc(Nc2nc(C)cc(C)c2C(N)=O)cc1`, the cell number change worked out at 4.09%. As for `FC(F)C(F)(F)Oc1cccc(-c2n[nH]c(=S)n2Cc2ccccc2)c1`, the cell number change is -35.7%. Besides, the AC50 under setting [1] was 29.1 µM [falling, single point]. The AC50 under setting [2] was 29.1 µM [falling, single point].

As to `CC(=O)N1CCN(c2ccc(NC(=O)c3ccc(Cl)c([N+](=O)[O-])c3)cc2)CC1`, the cell number change is -5.63%. Besides, under setting [2], the AC50 was 29.1 µM [rising, single point]. For `Cc1ccccc1OCC(=O)Nc1ccc(S(=O)(=O)N2CCCC2)cc1`, the cell number change was -45.2%. For the same compound, under setting [1], the AC50 is 18.4 µM [falling, single point]. Besides, the AC50 under setting [2] was 25.9 µM [falling, single point]. On to `O=C1CC(c2ccccc2)CC(O)=C1C=NCc1ccc(Cl)c(Cl)c1` (configuration not stated), for which the cell number change is -4.01%. Also, the AC50 under setting [1] is 3.26 µM [rising, single point]. Besides, under setting [2], the AC50 is 3.26 µM [rising, partial curve, poor fit].

Turning to `Nc1cccc2cc(-c3ccccc3)oc12`, the cell number change is -8.46%. In addition, the AC50 under setting [2] was 0.517 µM [falling, single point].

These data come from PubChem BioAssay AID2685 (National Center for Advancing Translational Sciences (NCATS), 2010).
